# Experimental data: PubChem BioAssay AID1347426 (Functional Genomics Laboratory (NCATS/FGL), 2020)
# Screen size: about 31,000 sequences; about 1,400 (4.5%) were called active.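 The calls were made as follows: active = median seed-adjusted z-score above 1 or below -1; inactive = the rest.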 This is one part of the list.
# Experiment: Novel Modifiers of Survival Motor Neuron (SMN) Protein: Gene Identification via Genome-wide siRNA Screen;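 also: luminescence tracks full-length SMN protein made from the SMN2 reporter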
# Conditions: HEK293T SMN2-luciferase reporter, siRNA knockdown, 72 h; actives lie on both sides
# Method in brief: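 Each of three siRNAs per gene is reverse-transfected (1 pmol) into reporter HEK293T cells whose luciferase output tracks SMN protein level. After 72 h culture, ONE-Glo luminescence is control-normalized, log10-transformed and MAD-standardized; Common Seed Analysis deprioritizes seed-driven hits.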
row,Sequence,median seed-adjusted z-score
1,CAAAAGUACUUGCAAAGAUTT against POLL,inactive: -0.334
2,GGUGACCAUUCGUUUAUUATT against SC4MOL,inactive: -0.0194
3,GCUCUGACCUUAUUAAGCATT against ZNF75A,inactive: 0.303
4,CGAAUAUGAUGAAGAUGUUTT against PHF17,active: 1.01
5,GGUCUUUGAUGCGAAGUUATT against DOCK2,inactive: 0.151
6,CGGACGACAUUACCAUCGATT against NRXN2,inactive: -0.485
7,GCACCAGGAUAUGUCUUAATT against YY1AP1,inactive: 0.0453
8,GCAUCCAAGUGAUUGAUCUTT against RSHL3,inactive: -0.407
9,CCACGGAUGGUGACAGUUATT against SLC6A11,inactive: -0.0369
10,GCAUGUUAUCGAAGGGUUUTT against PHC2,inactive: 0.177
11,CAAUGAAUUUUUCCGAAGATT against ITGA10,inactive: 0.378
12,AGCGCGUCAUGAUGACCUATT against PER1,inactive: 0.176
13,CGUCUGGACCGAAUCGGAATT against AVPR1A,inactive: 0
14,GUGUCGGUGUUCACGCUCATT against PRLHR,inactive: 0
15,ACACUGAUGGUGCAGUUAATT against S100A8,inactive: -0.337
16,CGGUGAAAGGGAUUUAUAATT against CASP9,inactive: -0.0982
17,GAGAUGUUGUGGUCGAUUUTT against ALPK1,inactive: -0.0149
18,CGACAUUACAAGGCGUGAATT against RAB2B,inactive: 0.882
19,CAGAGUUACUUGGUAUAUUTT against XIRP2,inactive: -0.404
20,GAAAUUUGAUCUCAGUUAUTT against MFN1,inactive: 0.21
21,CCGACUACCUGAUGAAGAUTT against ACTA1,inactive: -0.103
22,CACUCUAUGUCAACGUGAATT against EDEM1,inactive: -0.175

row,Sequence,median seed-adjusted z-score
1,CCAGUACCCUGAUGCUACATT against SPP1,inactive: -0.293
2,GGAGUGAAGACUUCGAGAATT against KCNN2,inactive: -0.0251
3,CACCUAUGAUCGCUCCAUUTT against RRAD,inactive: -0.267
4,CCUAAGUUCUCAACAGUUATT against TESSP2,inactive: 0.419
5,GGAAAGGAAUGGUCACGAATT against ZNF321,inactive: -0.642
6,GCAUUACCGGAAAAAGCGATT against MPZL2,inactive: -0.0172
7,CGAUUACCAUCGCAGGUCATT against SH3BP1,inactive: -0.225
8,GACCAGACUUUGUACCCUUTT against RNASEN,inactive: 0.524
9,CAGCGACUGUGGAAAAUCATT against ZNF484,inactive: 0.2
10,CAAACUACCUAUACGGCAATT against NPTX2,inactive: 0.0558
11,GGCAUUACUUGGACGACUATT against SLC4A11,inactive: -0.18
12,GCACUACGAGCAACGAAUATT against USP13,inactive: -0.044
13,GAAUUUAUCCCAAAGAAUATT against FOXN2,inactive: 0.0947
14,CAUGGUCACUGCUAGUGUATT against MBOAT1,active: -1.22
15,CUACACCACCUAUUCCAGATT against PARVG,inactive: 0.321
16,CGGGAUUGAUGGUUUAACUTT against COL9A2,inactive: 0.0208
17,AGAUCAAGCUCGACGGCUATT against EHD4,inactive: 0.333
18,GGAUACCUACGUGAUGAAATT against PCDH11X,inactive: -0.203
19,CGUGGUUGUUGUAAUCCAATT against PCDHGB1,inactive: -0.482
20,AGAAUGUGCGGCUUAUUGATT against CCDC88B,inactive: -0.153
21,AGAUCCUCAAGUACAAGAUTT against RAB20,inactive: -0.334
22,GGUUGUAGCUGUAACUGGUTT against ATP2B1,inactive: -0.459

row,Sequence,median seed-adjusted z-score
1,AGAUCAAAGUUGGUCCAAATT against MASP1,inactive: 0.653
2,AAAUCUUCUUUCGACAACATT against RAB37,inactive: 0.0678
3,CCCAAUUACUCAGCAGGAATT against AHRR,inactive: -0.636
4,GCCUGGAGGUAACUGCUUATT against AKR1A1,inactive: -0.255
5,CCCACUUACUGCACAACAATT against UGT1A1,inactive: -0.0283
6,CCCAAUCAAGUGUUACAAATT against JMJD1C,inactive: 0.0338
7,GGAUGAAGACUUCGAUGAATT against CHD3,inactive: 0.589
8,GAGAAGAAGUUCUUAAGGATT against ALKBH8,inactive: -0.487
9,CAGUAGAUGUGGAAAAGGATT against PTK2B,active: 1.71
10,AGGACAAGCUGAAAAUCCATT against ZBTB7C,inactive: 0.447
11,GGGACAAAAUUUCCGAAAATT against TSHZ2,inactive: -0.361
12,GGACAUGUUCUACUCUUCATT against LRP5,active: -1
13,GAACCAUUUAUGUAUUUCUTT against MMD,inactive: 0.193
14,GUCUGGAAUAUACUCGAAATT against RIPK5,inactive: -0.00523
15,UGCCGGAAAUAAAACAUAATT against CA5A,inactive: -0.0668
16,CCUUCCUCAUGAUCGCUGATT against GRM4,inactive: -0.71
17,GCACUGUAGUGGUUGAUGUTT against PCDHB7,inactive: 0.365
18,GAAUGACUCUAGCAAGCAATT against PTAR1,inactive: -0.507
19,GGGAGACUCUACAACAUAUTT against KCNIP4,inactive: -0.401
20,GCCUAGAGGAUACCCAAAATT against NPVF,inactive: 0.588
21,CAUCUUUGCUAGUAAUCUATT against UBA7,active: 2.41
22,GUAUAUGCCUGGAACGGUATT against TRIM2,inactive: -0.207

row,Sequence,median seed-adjusted z-score
1,CCUCGUUUGACAUCCACUATT against CTSD,inactive: -0.282
2,UAGGCAACAUAUUCAUUAATT against PABPC1,inactive: -0.126
3,CCAUUCCCACCAUAGGCUUTT against ARF1,inactive: -0.371
4,CCGCGAUCAUAGACCUAGATT against FOXO4,inactive: -0.0576
5,GAGUUGAACUGCUUGAUCATT against ZFX,inactive: -0.581
6,CCAGUACAGUGUGCAAGGATT against AOC2,inactive: 0
7,GAGCGAUUUUAGUUUAUGATT against RAB21,inactive: 0.544
8,CAAACGGGCUGAGCUCAGATT against KCTD17,inactive: 0.492
9,GGAUAUACAUCCAACCUCATT against DHPS,inactive: 0.0662
10,GGGUAACCAUUGCUGAGCATT against DRP2,inactive: -0.0555
11,GGAAUUUCUACAUACAAUATT against COX11,inactive: -0.317
12,CCGCAAUUCAGAUAUAGAATT against NFATC3,inactive: -0.517
13,GACCUAUCUGUAGACUACATT against ZNF167,inactive: 0.409
14,UGAGAAUGCUGAUCCCAUATT against COQ9,inactive: -0.787
15,UGCCUCUACUUGUCCCUUUTT against LIF,inactive: 0.273
16,GGUCGGAUGUCUACAGCGATT against TYROBP,inactive: 0.249
17,AAGUCACAUCGGAAAUUCATT against KIF2B,inactive: 0.226
18,CUGUCUCAUAUACAAAUUATT against DLGAP2,inactive: 0.295
19,CGGACUUCAUCAUCCCUGUTT against CTDSP1,inactive: 0.28
20,CUUUUGACGUGAACGAUGATT against ORM1,inactive: 0.206
21,GGACAUCAUUAAAGGAGAATT against PSAP,inactive: 0.107
22,CAACUGGACUCUACUCAAATT against ZNF81,inactive: 0.178

# 31 entries from above, bar-delimited:
row | Sequence | median seed-adjusted z-score
12 | GGACAUGUUCUACUCUUCATT against LRP5 | active: -1
13 | GAACCAUUUAUGUAUUUCUTT against MMD | inactive: 0.193
14 | GUCUGGAAUAUACUCGAAATT against RIPK5 | inactive: -0.00523
15 | UGCCGGAAAUAAAACAUAATT against CA5A | inactive: -0.0668
16 | CCUUCCUCAUGAUCGCUGATT against GRM4 | inactive: -0.71
17 | GCACUGUAGUGGUUGAUGUTT against PCDHB7 | inactive: 0.365
18 | GAAUGACUCUAGCAAGCAATT against PTAR1 | inactive: -0.507
19 | GGGAGACUCUACAACAUAUTT against KCNIP4 | inactive: -0.401
20 | GCCUAGAGGAUACCCAAAATT against NPVF | inactive: 0.588
21 | CAUCUUUGCUAGUAAUCUATT against UBA7 | active: 2.41
22 | GUAUAUGCCUGGAACGGUATT against TRIM2 | inactive: -0.207
1 | CCUCGUUUGACAUCCACUATT against CTSD | inactive: -0.282
2 | UAGGCAACAUAUUCAUUAATT against PABPC1 | inactive: -0.126
3 | CCAUUCCCACCAUAGGCUUTT against ARF1 | inactive: -0.371
4 | CCGCGAUCAUAGACCUAGATT against FOXO4 | inactive: -0.0576
5 | GAGUUGAACUGCUUGAUCATT against ZFX | inactive: -0.581
6 | CCAGUACAGUGUGCAAGGATT against AOC2 | inactive: 0
7 | GAGCGAUUUUAGUUUAUGATT against RAB21 | inactive: 0.544
8 | CAAACGGGCUGAGCUCAGATT against KCTD17 | inactive: 0.492
9 | GGAUAUACAUCCAACCUCATT against DHPS | inactive: 0.0662
10 | GGGUAACCAUUGCUGAGCATT against DRP2 | inactive: -0.0555
11 | GGAAUUUCUACAUACAAUATT against COX11 | inactive: -0.317
12 | CCGCAAUUCAGAUAUAGAATT against NFATC3 | inactive: -0.517
13 | GACCUAUCUGUAGACUACATT against ZNF167 | inactive: 0.409
14 | UGAGAAUGCUGAUCCCAUATT against COQ9 | inactive: -0.787
15 | UGCCUCUACUUGUCCCUUUTT against LIF | inactive: 0.273
16 | GGUCGGAUGUCUACAGCGATT against TYROBP | inactive: 0.249
17 | AAGUCACAUCGGAAAUUCATT against KIF2B | inactive: 0.226
18 | CUGUCUCAUAUACAAAUUATT against DLGAP2 | inactive: 0.295
19 | CGGACUUCAUCAUCCCUGUTT against CTDSP1 | inactive: 0.28
20 | CUUUUGACGUGAACGAUGATT against ORM1 | inactive: 0.206

# More entries follow.

row,Sequence,median seed-adjusted z-score
1,CGUCUGCUCGAAAACCCAUTT against ZDHHC4,inactive: 0.181
2,GCACCGUCUAUGUCACCAUTT against GAL3ST3,inactive: -0.54
3,GAAUGUCCCUGCUCCACAATT against SNAI1,inactive: 0.0196
4,CCAUGUUUCUCAUUAGUGUTT against NTSR1,active: -1.1
5,CGAUCCUAUUCGAUGAGAATT against GRM5,inactive: -0.227
6,CCGUGUAAGUUGCACCAAUTT against PMS2,inactive: -0.162
7,CUAUGUCAGUCGAAUAAUUTT against RFC4,inactive: -0.386
8,CCAAUAAAAUUUAACUGAUTT against MYLPF,inactive: 0.348
9,CCAUUGUAGUCUCUCCUCUTT against RECQL5,inactive: 0
10,AGGGCACAGAGAAUCCAUUTT against ASCL2,inactive: -0.249
11,GAGAGGUGAUGAUCCUUAUTT against GNPDA1,inactive: 0.0252
12,GAGAAAACUUAGAACCCAATT against SCTR,inactive: -0.352
13,GACACCCGCUUUACCCUUATT against PTPRF,inactive: 0.413
14,CGUCUGCAACUUCUCCGAATT against CD14,inactive: 0.0723
15,GGCGAAAAAUUGCUACCGATT against PSMC2,active: -1.96
16,AAUAAAGUACUUUACCUAATT against GSTA1,inactive: 0.27
17,GCACAUCUGUAAAUCUACATT against BID,inactive: 0.342
18,GGAACAGUAUCUAUCACUATT against HGF,inactive: -0.569
19,GAAUGAGGAGGGAAUGGUATT against POLA2,inactive: -0.114
20,CUAACAAGGUGGACCACCATT against F13A1,inactive: -0.508
